The record followed here is article PMC12301622.

Sequences of proteins named here, by UniProt entry; tags and fusion partners are left off.
UniProt Q5XFX0: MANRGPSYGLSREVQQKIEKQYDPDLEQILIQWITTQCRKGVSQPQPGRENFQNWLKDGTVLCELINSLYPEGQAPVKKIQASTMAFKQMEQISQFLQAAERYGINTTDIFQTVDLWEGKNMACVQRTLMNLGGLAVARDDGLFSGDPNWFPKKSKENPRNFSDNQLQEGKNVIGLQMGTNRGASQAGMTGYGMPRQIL

Results are given in words; binding and its absence hold for the method and conditions named. Binding seen in cells or lysates may run through a third protein. Some results given as binding are weak or reduced against the parent protein; the word gives no strength.

In this test the target is T1, CNPase (2',3'-cyclic nucleotide-3'-phosphodiesterase) (rat (endogenous in H9c2)) (UniProt P13233).
T1 sequence: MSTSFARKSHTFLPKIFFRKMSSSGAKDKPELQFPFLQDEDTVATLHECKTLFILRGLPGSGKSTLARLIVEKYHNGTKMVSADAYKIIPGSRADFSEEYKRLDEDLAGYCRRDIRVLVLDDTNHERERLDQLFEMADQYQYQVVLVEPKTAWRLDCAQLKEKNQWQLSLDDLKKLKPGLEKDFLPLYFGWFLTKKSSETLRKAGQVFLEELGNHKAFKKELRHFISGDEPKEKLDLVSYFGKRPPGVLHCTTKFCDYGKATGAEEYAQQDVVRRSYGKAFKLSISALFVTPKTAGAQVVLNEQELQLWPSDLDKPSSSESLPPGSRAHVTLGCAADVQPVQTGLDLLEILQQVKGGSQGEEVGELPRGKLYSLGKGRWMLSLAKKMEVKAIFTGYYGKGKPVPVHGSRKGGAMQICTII
Description: co-IP; H9c2 cell lysate (co-immunoprecipitation kit); TG2 antibody or CNPase antibody or control IgG, protein A and G, 4°C 12 h; Western blot; also after TG2 knock-down (siRNA). Background: A western blot detects proteins with antibodies after separation by electrophoresis.

As to transgelin2 (from UniProt Q5XFX0 1-199), the binding entry is reported as “binds”.
